Experimental data: PubChem BioAssay AID1259425 (University of Nebraska Medical Center, 2018)
The whole screen tested about 14,000 reagents; below is an unselected part. The numbers tell different reagents against one gene apart. A reagent listed more than once was tested more than once; the source does not tell the runs apart. Further read-outs or replicates are left out here. Not stated in the record: the time to read-out.

Purpose: 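Compare each knockdown with KSR1 silencing using changes in marker transcripts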 (primary screen)
System: HCT116 human colon cancer cells
Reagents: siRNA pool against human genes, 50 nM siRNA
Read-out: 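After 50 nM siRNA pool, branched-DNA assay measures six marker transcripts per well, minus blank, normalised to the geometric mean of two housekeeping transcripts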
Scale: BNIP3L mRNA: higher = more BNIP3L transcript after knockdown

BNIP3L mRNA, set 1, by gene and reagent
INTS6 (integrator complex subunit 6): #1 0.198
SRSF10 (serine and arginine rich splicing factor 10): #1 0.0897
SERTAD3 (SERTA domain containing 3): #1 0.161
GZMH (granzyme H): #1 0.167
NDUFB9 (NADH:ubiquinone oxidoreductase subunit B9): #1 0.103
TRIM58 (tripartite motif containing 58): #1 0.0981
ADGRA1 (adhesion G protein-coupled receptor A1): #1 0.123
DPT (dermatopontin): #1 0.109
NETO1 (neuropilin and tolloid like 1): #1 0.0758
CIAO1 (cytosolic iron-sulfur assembly component 1): #1 0.119
RBMS1 (RNA binding motif single stranded interacting protein 1): #1 0.0973; #2 0.0748
THPO (thrombopoietin): #1 0.0656
CADPS (calcium dependent secretion activator): #1 0.161
PRAC1 (PRAC1 small nuclear protein): #1 0.15
TMEM181 (transmembrane protein 181): #1 0.0517
SYNE1 (spectrin repeat containing nuclear envelope protein 1): #1 0.0922
FLOT2 (flotillin 2): #1 0.0875
DIPK2B (divergent protein kinase domain 2B): #1 0.176
NPR2 (natriuretic peptide receptor 2): #1 0.0693; #1 0.154
DOCK5 (dedicator of cytokinesis 5): #1 0.0996
CATSPER2 (cation channel sperm associated 2): #1 0.129
ZNF514 (zinc finger protein 514): #1 0.119
PTPRM (protein tyrosine phosphatase receptor type M): #1 0.0675
ZNF767P (zinc finger family member 767, pseudogene): #1 0.104
SLC2A10: #1 0.0807
ITGB7 (integrin subunit beta 7): #1 0.164
USP11 (ubiquitin specific peptidase 11): #1 0.0425
KRT2 (keratin 2): #1 0.138
MED14 (mediator complex subunit 14): #1 0.126
PAK3 (p21 (RAC1) activated kinase 3): #1 0.0696
AKAP11 (A-kinase anchoring protein 11): #1 0.315
GNA13 (G protein subunit alpha 13): #1 0.356
CBX3 (chromobox 3): #1 0.0943
DCLK2 (doublecortin like kinase 2): #1 0.291
GMPPB (GDP-mannose pyrophosphorylase B): #1 0.108
GALR3 (galanin receptor 3): #1 0.141
ZNF432 (zinc finger protein 432): #1 0.078
KIRREL2 (kirre like nephrin family adhesion molecule 2): #1 0.21
CRHR1 (corticotropin releasing hormone receptor 1): #1 0.218
IFITM3 (interferon induced transmembrane protein 3): #1 0.114
TCP10L3 (t-complex 10 like 3 (pseudogene)): #1 0.171
FRMPD3 (FERM and PDZ domain containing 3): #1 0.166
NLGN2 (neuroligin 2): #1 0.131
CMKLR2 (chemerin chemokine-like receptor 2): #1 0.182
CCDC106 (coiled-coil domain containing 106): #1 0.0294
RTBDN (retbindin): #1 0.229
TTLL2 (tubulin tyrosine ligase like 2): #1 0.301
XCL2 (X-C motif chemokine ligand 2): #1 0.124
